From the supplement of paper PMC11637464
Counter-ions that a name gives are not always drawn. Some of the results follow. Most values come without repeats; read them as rough.

Test system: primary mouse Muller glia with Ascl1 overexpression
Assay: Neuronal cell count fold change vs Ascl1-only control (log2 fold change); higher = more neurogenesis
Procedure: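 Primary P11 mouse Muller glia carrying dox-inducible Ascl1 were treated with Tocriscreen Stem Cell Library compounds at 0.1, 1 or 10 uM together with doxycycline for 5 days, then profiled by sci-Plex hashing and sci-RNA-seq2. Cells were annotated by marker genes and cell-type counts per well were size-factor adjusted. Read-outs are the log2 fold change of Neuronal (NeuPre + bipolar) and ProL cell counts versus the Ascl1-only control wells of the same collection day, plus the raw number of recovered cells per well. There is one well per dose, and wells with fewer than 20 cells were discarded.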

Compound: c1cc(-c2cnn3cc(-c4ccc(OCCN5CCCCC5)cc4)cnc23)ccn1 [Dorsomorphin dihydrochloride] (collection day: 1)
- Neuronal cell count fold change (0.1 µM): -0.556
- Neuronal cell count fold change (1 µM): 0

Compound: CC1(C)CCC(C)(C)c2cc(C(=O)Nc3ccc(C(=O)O)cc3)ccc21 (collection day: 1)
- Neuronal cell count fold change (0.1 µM): -1.32
- Neuronal cell count fold change (1 µM): -0.252

Compound: CC(NC(=O)C(OC(=O)C(C)NC(=O)OC(C)(C)C)C(C)C)C(=O)OC(C(=O)O)C(C)C (centres undefined) (collection day: 2)
- Neuronal cell count fold change (0.1 µM): -0.7
- Neuronal cell count fold change (1 µM): 0.3
- Neuronal cell count fold change (10 µM): 0.387

Compound: CCN(CC)CCCCNc1ncc2cc(-c3cc(OC)cc(OC)c3)c(NC(=O)NC(C)(C)C)nc2n1 (collection day: 1)
- Neuronal cell count fold change (0.1 µM): -0.474
- Neuronal cell count fold change (1 µM): -0.474

Compound: Nc1ncnc2c1nc(Br)n2[C@@H]1O[C@@H]2COP(=O)(O)O[C@H]2[C@H]1O [8-Bromo-cAMP, sodium salt] (collection day: 1)
- Neuronal cell count fold change (0.1 µM): -0.474
- Neuronal cell count fold change (1 µM): -0.252
- Neuronal cell count fold change (10 µM): -0.737

Compound: CN1CCC[C@@H]1CCO[C@](C)(c1ccccc1)c1ccc(Cl)cc1 [Clemastine fumarate] (collection day: 1)
- Neuronal cell count fold change (0.1 µM): -0.943
- Neuronal cell count fold change (1 µM): -0.837

Compound: CC1=C(C(=O)Nc2cc3cn[nH]c3cc2F)C(c2ccc(C(F)(F)F)cc2)CC(=O)N1 (centres undefined) (collection day: 2)
- Neuronal cell count fold change (0.1 µM): 0.206
- Neuronal cell count fold change (1 µM): 0.107
- Neuronal cell count fold change (10 µM): 0.107

Compound: Nc1[nH]ncc1-c1cc(Cl)ccc1Oc1cc(F)c(S(=O)(=O)Nc2cscn2)cc1Cl (collection day: 2)
- Neuronal cell count fold change (0.1 µM): -0.7
- Neuronal cell count fold change (1 µM): -0.115
- Neuronal cell count fold change (10 µM): -1.7

Compound: O=C(O)C(Cc1c[nH]c2ccccc12)N1C(=O)c2ccccc2C1=O (centres undefined) (collection day: 2)
- Neuronal cell count fold change (0.1 µM): 0.107
- Neuronal cell count fold change (1 µM): 0.206
- Neuronal cell count fold change (10 µM): 0

Compound: C=C[C@@]1(C)CC(=O)[C@]2(O)[C@@]3(C)[C@@H](O)CCC(C)(C)[C@@H]3[C@H](O)[C@H](OC(C)=O)[C@@]2(C)O1 [Forskolin] (collection day: 1)
- Neuronal cell count fold change (0.1 µM): -0.12
- Neuronal cell count fold change (1 µM): -0.252
- Neuronal cell count fold change (10 µM): -0.184

Compound: O=C(O)c1ccc2cc(-c3ccc(O)c(C45CC6CC(CC(C6)C4)C5)c3)ccc2c1 (collection day: 1)
- Neuronal cell count fold change (0.1 µM): -0.252

Compound: O=C1NC(=O)c2c1c(-c1ccccc1)cc1[nH]c3ccc(O)cc3c21 (collection day: 1)
- Neuronal cell count fold change (0.1 µM): 0.164

Compound: O=S(=O)(NCCNC/C=C/c1ccc(Br)cc1)c1cccc2cnccc12 [H 89 dihydrochloride] (collection day: 1)
- Neuronal cell count fold change (0.1 µM): -0.184
- Neuronal cell count fold change (1 µM): -0.943

Compound: CN(CCOc1ccc(CC2SC(=O)NC2=O)cc1)c1ccccn1 (centres undefined) [Rosiglitazone] (collection day: 2)
- Neuronal cell count fold change (0.1 µM): 0.107
- Neuronal cell count fold change (1 µM): 0
- Neuronal cell count fold change (10 µM): 0

Compound: C=CCNc1ncnc2ccc(Br)cc12 (collection day: 2)
- Neuronal cell count fold change (0.1 µM): -0.531
- Neuronal cell count fold change (1 µM): 0.3
- Neuronal cell count fold change (10 µM): -0.893

Compound: Nc1ncn([C@@H]2O[C@H](CO)[C@@H](O)[C@H]2O)c(=O)n1 [5-Azacytidine] (collection day: 2)
- Neuronal cell count fold change (0.1 µM): 0.3
- Neuronal cell count fold change (1 µM): -0.531
- Neuronal cell count fold change (10 µM): -0.7
